Source: the supplement of paper PMC3353916

Test system: Sindbis virus TE/5'2J-GFP
Test: percent infected (GFP+ in RFP+ ISG-expressing cells); higher = more infection (less antiviral activity)
Details: experiment: primary screen (single well)

Substance: MAEEEVAKLEKHLMLLRQEYVKLQKKLAETEKRCALLAAQANKESSSESFISRLLAIVADLYEQEQYSDLKIKVGDRHISAHKFVLAARSDSWSLANLSSTKELDLSDANPEVTMTMLRWIYTDELEFREDDVFLTELMKLANRFQLQLLRERCEKGVMSLVNVRNCIRFYQTAEELNASTLMNYCAEIIASHWDDLRKEDFSSMSAQLLYKMIKSKTEYPLHKAIKVEREDVVFLYLIEMDSQLPGKLNEADHNGDLALDLALSRRLESIATTLVSHKADVDMVDKSGWSLLHKGIQRGDLFAATFLIKNGAFVNAATLGAQETPLHLVALYSSKKHSADVMSEMAQIAEALLQAGANPNMQDSKGRTPLHVSIMAGNEYVFSQLLQCKQLDLELKDHEGSTALWLAVQHITVSSDQSVNPFEDVPVVNGTSFDENSFAARLIQRGSHTDAPDTATGNCLLQRAAGAGNEAAALFLATNGAHVNHRNKWGETPLHTACRHGLANLTAELLQQGANPNLQTEEALPLPKEAASLTSLADSVHLQTPLHMAIAYNHPDVVSVILEQKANALHATNNLQIIPDFSLKDSRDQTVLGLALWTGMHTIAAQLLGSGAAINDTMSDGQTLLHMAIQRQDSKSALFLLEHQADINVRTQDGETALQLAIRNQLPLVVDAICTRGADMSVPDEKGNPPLWLALANNLEDIASTLVRHGCDATCWGPGPGGCLQTLLHRAIDENNEPTACFLIRSGCDVNSPRQPGANGEGEEEARDGQTPLHLAASWGLEETVQCLLEFGANVNAQDAEGRTPIHVAISSQHGVIIQLLVSHPDIHLNVRDRQGLTPFACAMTFKNNKSAEAILKRESGAAEQVDNKGRNFLHVAVQNSDIESVLFLISVHANVNSRVQDASKLTPLHLAVQAGSEIIVRNLLLAGAKVNELTKHRQTALHLAAQQDLPTICSVLLENGVDFAAVDENGNNALHLAVMHGRLNNIRVLLTECTVDAEAFNLRGQSPLHILGQYGKENAAAIFDLFLECMPGYPLDKPDADGSTVLLLAYMKGNANLCRAIVRSGARLGVNNNQGVNIFNYQVATKQLLFRLLDMLSKEPPWCDGSYCYECTARFGVTTRKHHCRHCGRLLCHKCSTKEIPIIKFDLNKPVRVCNICFDVLTLGGVS [ANKFY1]
- percent infected (BHK/HA-Zeo (control)): 98.4%
- percent infected (BHK/NZAP-Zeo (ZAP)): 91.5%

Substance: MAEFLDDQETRLCDNCKKEIPVFNFTIHEIHCQRNIGMCPTCKEPFPKSDMETHMAAEHCQVTCKCNKKLEKRLLKKHEETECPLRLAVCQHCDLELSILKLKEHEDYCGARTELCGNCGRNVLVKDLKTHPEVCGREGEEKRNEVAIPPNAYDESWGQDGIWIASQLLRQIEALDPPMRLPRRPLRAFESDVFHNRTTNQRNITAQVSIQNNLFEEQERQERNRGQQPPKEGGEESANLDFMLALSLQNEGQASSVAEQDFWRAVCEADQSHGGPRSLSDIKGAADEIMLPCEFCEELYPEELLIDHQTSCNPSRALPSLNTGSSSPRGVEEPDVIFQNFLQQAASNQLDSLMGLSNSHPVEESIIIPCEFCGVQLEEEVLFHHQDQCDQRPATATNHVTEGIPRLDSQPQETSPELPRRRVRHQGDLSSGYLDDTKQETANGPTSCLPPSRPINNMTATYNQLSRSTSGPRPGCQPSSPCVPKLSNSDSQDIQGRNRDSQNGAIAPGHVSVIRPPQNLYPENIVPSFSPGPSGRYGASGRSEGGRNSRVTPAAANYRSRTAKAKPSKQQGAGDAEEEEEE [TRAFD1]
- percent infected (BHK/HA-Zeo (control)): 98.9%
- percent infected (BHK/NZAP-Zeo (ZAP)): 97.5%

Substance: MAEGEGYFAMSEDELACSPYIPLGGDFGGGDFGGGDFGGGDFGGGGSFGGHCLDYCESPTAHCNVLNWEQVQRLDGILSETIPIHGRGNFPTLELQPSLIVKVVRRRLAEKRIGVRDVRLNGSAASHVLHQDSGLGYKDLDLIFCADLRGEGEFQTVKDVVLDCLLDFLPEGVNKEKITPLTLKEAYVQKMVKVCNDSDRWSLISLSNNSGKNVELKFVDSLRRQFEFSVDSFQIKLDSLLLFYECSENPMTETFHPTIIGESVYGDFQEAFDHLCNKIIATRNPEEIRGGGLLKYCNLLVRGFRPASDEIKTLQRYMCSRFFIDFSDIGEQQRKLESYLQNHFVGLEDRKYEYLMTLHGVVNESTVCLMGHERRQTLNLITMLAIRVLADQNVIPNVANVTCYYQPAPYVADANFSNYYIAQVQPVFTCQQQTYSTWLPCN [FAM46A]
- percent infected (BHK/NZAP-Zeo (ZAP)): 98.9%

Substance: MAENGKNCDQRRVAMNKEHHNGNFTDPSSVNEKKRREREERQNIVLWRQPLITLQYFSLEILVILKEWTSKLWHRQSIVVSFLLLLAVLIATYYVEGVHQQYVQRIEKQFLLYAYWIGLGILSSVGLGTGLHTFLLYLGPHIASVTLAAYECNSVNFPEPPYPDQIICPDEEGTEGTISLWSIISKVRIEACMWGIGTAIGELPPYFMARAARLSGAEPDDEEYQEFEEMLEHAESAQDFASRAKLAVQKLVQKVGFFGILACASIPNPLFDLAGITCGHFLVPFWTFFGATLIGKAIIKMHIQKIFVIITFSKHIVEQMVAFIGAVPGIGPSLQKPFQEYLEAQRQKLHHKSEMGTPQGENWLSWMFEKLVVVMVCYFILSIINSMAQSYAKRIQQRLNSEEKTK [TMEM49]
- percent infected (BHK/HA-Zeo (control)): 97.6%
- percent infected (BHK/NZAP-Zeo (ZAP)): 93.5%

Substance: MAEQVLPQALYLSNMRKAVKIRERTPEDIFKPTNGIIHHFKTMHRYTLEMFRTCQFCPQFREIIHKALIDRNIQATLESQKKLNWCREVRKLVALKTNGDGNCLMHATSQYMWGVQDTDLVLRKALFSTLKETDTRNFKFRWQLESLKSQEFVETGLCYDTRNWNDEWDNLIKMASTDTPMARSGLQYNSLEEIHIFVLCNILRRPIIVISDKMLRSLESGSNFAPLKVGGIYLPLHWPAQECYRYPIVLGYDSHHFVPLVTLKDSGPEIRAVPLVNRDRGRFEDLKVHFLTDPENEMKEKLLKEYLMVIEIPVQGWDHGTTHLINAAKLDEANLPKEINLVDDYFELVQHEYKKWQENSEQGRREGHAQNPMEPSVPQLSLMDVKCETPNCPFFMSVNTQPLCHECSERRQKNQNKLPKLNSKPGPEGLPGMALGASRGEAYEPLAWNPEESTGGPHSAPPTAPSPFLFSETTAMKCRSPGCPFTLNVQHNGFCERCHNARQLHASHAPDHTRHLDPGKCQACLQDVTRTFNGICSTCFKRTTAEASSSLSTSLPPSCHQRSKSDPSRLVRSPSPHSCHRAGNDAPAGCLSQAARTPGDRTGTSKCRKAGCVYFGTPENKGFCTLCFIEYRENKHFAAASGKVSPTASRFQNTIPCLGRECGTLGSTMFEGYCQKCFIEAQNQRFHEAKRTEEQLRSSQRRDVPRTTQSTSRPKCARASCKNILACRSEELCMECQHPNQRMGPGAHRGEPAPEDPPKQRCRAPACDHFGNAKCNGYCNECFQFKQMYG [TNFAIP3]
- percent infected (BHK/HA-Zeo (control)): 98.1%
- percent infected (BHK/NZAP-Zeo (ZAP)): 95.8%

Substance: MAFB
- percent infected (BHK/NZAP-Zeo (ZAP)): 96.5%

Substance: MAFF
- percent infected (BHK/HA-Zeo (control)): 74.3%
- percent infected (BHK/NZAP-Zeo (ZAP)): 83.3%

Substance: MAFIAKSFYDLSAISLDGEKVDFNTFRGRAVLIENVASLUGTTTRDFTQLNELQCRFPRRLVVLGFPCNQFGHQENCQNEEILNSLKYVRPGGGYQPTFTLVQKCEVNGQNEHPVFAYLKDKLPYPYDDPFSLMTDPKLIIWSPVRRSDVAWNFEKFLIGPEGEPFRRYSRTFPTINIEPDIKRLLKVAI [GPX2]
- percent infected (BHK/HA-Zeo (control)): 96.7%
- percent infected (BHK/NZAP-Zeo (ZAP)): 94.5%

Substance: MAFMEKPPAGKVLLDDTVPLTAAIEASQSLQSHTEYIIRVQRGISVENSWQIVRRYSDFDLLNNSLQIAGLSLPLPPKKLIGNMDREFIAERQKGLQNYLNVITTNHILSNCELVKKFLDPNNYSANYTEIALQQVSMFFRSEPKWEVVEPLKDIGWRIRKKYFLMKIKNQPKERLVLSWADLGPDKYLSDKDFQCLIKLLPSCLHPYIYRVTFATANESSALLIRMFNEKGTLKDLIYKAKPKDPFLKKYCNPKKIQGLELQQIKTYGRQILEVLKFLHDKGFPYGHLHASNVMLDGDTCRLLDLENSLLGLPSFYRSYFSQFRKINTLESVDVHCFGHLLYEMTYGRPPDSVPVDSFPPAPSMAVVAVLESTLSCEACKNGMPTISRLLQMPLFSDVLLTTSEKPQFKIPTKLKEALRIAKECIEKRLIEEQKQIHQHRRLTRAQSHHGSEEERKKRKILARKKSKRSALENSEEHSAKYSNSNNSAGSGASSPLTSPSSPTPPSTSGISALPPPPPPPPPPAAPLPPASTEAPAQLSSQAVNGMSRGALLSSIQNFQKGTLRKAKTCDHSAPKIG [PXK]
- percent infected (BHK/HA-Zeo (control)): 98.4%
- percent infected (BHK/NZAP-Zeo (ZAP)): 97.4%

Substance: MAFSGSQAPYLSPAVPFSGTIQGGLQDGLQITVNGTVLSSSGTRFAVNFQTGFSGNDIAFHFNPRFEDGGYVVCNTRQNGSWGPEERKTHMPFQKGMPFDLCFLVQSSDFKVMVNGILFVQYFHRVPFHRVDTISVNGSVQLSYISFQNPRTVPVQPAFSTVPFSQPVCFPPRPRGRRQKPPGVWPANPAPITQTVIHTVQSAPGQMFSTPAIPPMMYPHPAYPMPFITTILGGLYPSKSILLSGTVLPSAQRFHINLCSGNHIAFHLNPRFDENAVVRNTQIDNSWGSEERSLPRKMPFVRGQSFSVWILCEAHCLKVAVDGQHLFEYYHRLRNLPTINRLEVGGDIQLTHVQT [LGALS9]
- percent infected (BHK/HA-Zeo (control)): 97.5%
- percent infected (BHK/NZAP-Zeo (ZAP)): 94.4%

Substance: MAGAATGSRTPGRSELVEGCGWRCPEHGDRVAELFCRRCRRCVCALCPVLGAHRGHPVGLALEAAVHVQKLSQECLKQLAIKKQQHIDNITQIEDATEKLKANAESSKTWLKGKFTELRLLLDEEEALAKKFIDKNTQLTLQVYREQADSCREQLDIMNDLSNRVWSISQEPDPVQRLQAYTATEQEMQQQMSLGELCHPVPLSFEPVKSFFKGLVEAVESTLQTPLDIRLKESINCQLSDPSSTKPGTLLKTSPSPERSLLLKYARTPTLDPDTMHARLRLSADRLTVRCGLLGSLGPVPVLRFDALWQVLARDCFATGRHYWEVDVQEAGAGWWVGAAYASLRRRGASAAARLGCNRQSWCLKRYDLEYWAFHDGQRSRLRPRDDLDRLGVFLDYEAGVLAFYDVTGGMSHLHTFRATFQEPLYPALRLWEGAISIPRLP [TRIM14]
- percent infected (BHK/HA-Zeo (control)): 96.8%
- percent infected (BHK/NZAP-Zeo (ZAP)): 86.1%

Substance: MAGIELERCQQQANEVTEIMRNNFGKVLERGVKLAELQQRSDQLLDMSSTFNKTTQNLAQKKCWENIRYRICVGLVVVGVLLIILIVLLVVFLPQSSDSSSAPRTQDAGIASGPGN [VAMP5]
- percent infected (BHK/HA-Zeo (control)): 87.6%
- percent infected (BHK/NZAP-Zeo (ZAP)): 78.1%

Substance: MAGPERWGPLLLCLLQAAPGRPRLAPPQNVTLLSQNFSVYLTWLPGLGNPQDVTYFVAYQSSPTRRRWREVEECAGTKELLCSMMCLKKQDLYNKFKGRVRTVSPSSKSPWVESEYLDYLFEVEPAPPVLVLTQTEEILSANATYQLPPCMPPLDLKYEVAFWKEGAGNKTLFPVTPHGQPVQITLQPAASEHHCLSARTIYTFSVPKYSKFSKPTCFLLEVPEANWAFLVLPSLLILLLVIAAGGVIWKTLMGNPWFQRAKMPRALDFSGHTHPVATFQPSRPESVNDLFLCPQKELTRGVRPTPRVRAPATQQTRWKKDLAEDEEEEDEEDTEDGVSFQPYIEPPSFLGQEHQAPGHSEAGGVDSGRPRAPLVPSEGSSAWDSSDRSWASTVDSSWDRAGSSGYLAEKGPGQGPGGDGHQESLPPPEFSKDSGFLEELPEDNLSSWATWGTLPPEPNLVPGGPPVSLQTLTFCWESSPEEEEEARESEIEDSDAGSWGAESTQRTEDRGRTLGHYMAR [IL28RA]
- percent infected (BHK/HA-Zeo (control)): 55.5%
- percent infected (BHK/NZAP-Zeo (ZAP)): 5.76%

Substance: MAKRNAEKELTDRNWDQEDEAEEVGTFSMASEEVLKNRAIKKAKRRNVGFESDTGGAFKGFKGLVVPSGGGRFSGFGSGAGGKPLEGLSNGNNITSAPPFASAKAAADPKVAFGSLAANGPTTLVDKVSNPKTNGDSQQPSSSGLASSKACVGNAYHKQLAALNCSVRDWIVKHVNTNPLCDLTPIFKDYEKYLANIEQQHGNSGRNSESESNKVAAETQSPSLFGSTKLQQESTFLFHGNKTEDTPDKKMEVASEKKTDPSSLGATSASFNFGKKVDSSVLGSLSSVPLTGFSFSPGNSSLFGKDTTQSKPVSSPFPTKPLEGQAEGDSGECKGGDEEENDEPPKVVVTEVKEEDAFYSKKCKLFYKKDNEFKEKGIGTLHLKPTANQKTQLLVRADTNLGNILLNVLIPPNMPCTRTGKNNVLIVCVPNPPIDEKNATMPVTMLIRVKTSEDADELHKILLEKKDA [NUP50]
- percent infected (BHK/HA-Zeo (control)): 93.7%
- percent infected (BHK/NZAP-Zeo (ZAP)): 89.5%

This is a noisy data set.
